Assay results reported in patent US7018839B2 (priority 1996, dated 2006).
At least one peptide structure holds a part that was inferred or is arguable (an end, a ring closure or a residue). No end group written: not given here.

Key:
[1] = tested on: binding site in the vulnerable cells; assay: Affinity of peptide for binding site in vulnerable cells
substantia nigra = assay: Behavioural studies: infusion into one substantia nigra, amphetamine challenge, circling; type: in vivo, rats
Protocol: In these experiments, rats were chronically implanted with a cannula in one substantia nigra and left to recover. After a period of about 3 days, they were infused with either a saline control solution, or a solution containing the 14-mer AChE peptide of the invention at a dose of 1 μl of 10^−5M. After a single infusion, they were challenged daily with a systemic application of amphetamine for the subsequent 10 days.

[2] = tested on: hippocampal cells in organotypic cultures; assay: Organotypic hippocampal tissue culture toxicity (trypan blue, LDH, AChE immunocytochemistry); type: cell-based, rats; conditions: chronic cultures, 21 days
Protocol: The organotype tissue culture technique requires postnatal (day 5–7) rats given terminal anaesthesia followed by decapitation. Sections of hippocampus, 400 μm thick, are prepared and then plated on a plasma/thrombin clot. A serum-based media is added to these cultures, which can then be maintained at constant temperature (35° C.) for up to 21 days. After each study, cultures are stained with trypan blue to assess cell viability, in addition, after every removal of serum media, cultures are assayed for lactate dehydrogenase (LDH—a soluble cytoplasmic enzyme used as an index of cellular damage).
Following chronic studies (cultures are maintained for 21 days and treated with AChE-peptide and/or NMDA every 3–4 days), cultured cells are immunocytochemically stained for acetylcholinesterase in order to assess what action, if any, the AChE-peptide has on cell number.

anti-peptide antibody = assay: Competition assay for binding of antibody to immobilised AChE-peptide; design: species or system Rabbits; conditions: competitor preincubated with antibody in solution; APP and BuChE peptide at even excessive doses
Protocol: In order to be sure that the antibody recognition of peptides occurs without the possible distortion due to the binding of the peptide to a charged plastic surface, an assay was used in which the critical interaction is studied in solution. […] An aliquot of the antibody was preincubated with potential competitors for binding to the AChE-peptide before presenting the resulting mixture to the peptide bound to the well.

[3] = tested on: neurons in the substantia nigra
spinal cord = assay: Pilot studies of peptide binding in spinal cord

AEFHRWSSYMVHWK [AChE peptide]
affinity for binding site [1]: nanomolar affinity | circling behaviour (activity of the nigrostriatal pathway) (substantia nigra; infused unilaterally into the substantia nigra): mimicked | time to maximum contraversive rotation (substantia nigra; post infusion, remained consistent for the remaining 3 days): 7 days | rotation after amphetamine challenge (substantia nigra; single infusion 1 μl of 10^−5M into one substantia nigra, daily systemic amphetamine for 10 days, n=8): contraversive rotation | acetylcholinesterase-positive cells (immunocytochemical staining) [2]: may be protected to some extent | competition for the binding of antibody to immobilised AChE-peptide (anti-peptide antibody): could compete in this assay in a dose-dependent manner | calcium influx [3]: enhanced calcium influx | calcium potentials [3]: marked reduction in the calcium potentials | binding in spinal cord (spinal cord): binds bilaterally to selective sites within the spinal cord
